PubChem BioAssay AID504786, Drosophila RNAi Screening Center – 2011

Assay: 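Positive regulators of HIF-driven reporter output in Drosophila cells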 (primary screen)
Cell system: Drosophila S2 cells with a stable HIF luciferase reporter
Knock-down reagent: long dsRNA against Drosophila genes, about 0.2 µg dsRNA per well of a 384-well plate
Time to read-out: three days of knock-down, then 20 h of DFO before reading
Treatment: desferrioxamine (DFO) at 100 µM, an iron chelator that mimics hypoxia, for 20 h
Measured: 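Firefly luciferase driven by the mouse ldh-a hypoxia-response element, measured after 20 h of 100 µM DFO; z-scores per plate, higher means more signal lost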
Scale: z-score: higher = stronger loss of HIF reporter signal
In all, the deposit lists about 21,000 reagents; below is a random part of those that have a named target and a result. 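Primary screen; positive scores mean lost reporter signal, so the sign may be inverted from the usual convention.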 Names joined by + are all predicted targets of the reagent. Not all columns of the deposit are shown.

| gene | DRSC id | z-score, replicate 1 | z-score, replicate 2 |
| --- | --- | --- | --- |
| nac (neuronally altered carbohydrate) | DRSC16520 | -0.4 | -0.1 |
| CG34376 | DRSC14695 | -0.1 | -0.9 |
| CG34376 | DRSC14696 | 0.7 | -0.6 |
| CG34376 | DRSC14701 | 0.5 | 0 |
| prd1 (pruning defect 1) | DRSC15227 | -0.5 | -0.8 |
| CG13315 | DRSC09986 | -0.3 | 0.3 |
| BBS8 (Bardet-Biedl syndrome 8) | DRSC00360 | 0 | -0.2 |
| CG11768 | DRSC14377 | 0.4 | 0.9 |
| Manf (Mesencephalic astrocyte-derived neurotrophic factor) | DRSC14091 | -0.2 | -0.6 |
| wash (washout) | DRSC06302 | -0.3 | -0.5 |
| byn (brachyenteron) | DRSC11332 | -0.1 | -0.4 |
| Hers (Histone gene-specific Epigenetic Repressor in late S phase) | DRSC19429 | -0.3 | -0.2 |
| Hers (Histone gene-specific Epigenetic Repressor in late S phase) | DRSC19676 | 0.1 | 0.2 |
| Gem2 (Gemin 2) | DRSC09721 | -0.2 | -0.2 |
| CG4853 | DRSC06898 | -0.2 | -0.2 |
| CG5854 | DRSC15894 | 0.1 | -0.4 |
| CG14778 | DRSC17953 | -0.2 | -0.8 |
| CG3587 | DRSC18541 | -0.3 | -0.8 |
| snoRNA:Me28S-C3227a + snoRNA:Me18S-A1061 + snoRNA:Me28S-C3227b + 7 more | DRSC05497 | 0 | 0.3 |
| vri (vrille) | DRSC03633 | 4.6 | 0.6 |
| Plzf (Promyelocytic leukemia zinc finger) | DRSC02994 | -0.4 | -0.7 |
| rpr (reaper) | DRSC11390 | -0.4 | -0.8 |
| CG13117 | DRSC02215 | -0.3 | -0.4 |
| Sesn (Sestrin) | DRSC04101 | 0.1 | 0 |
| Sesn (Sestrin) | DRSC04102 | 0 | -0.3 |
| Sesn (Sestrin) | DRSC04103 | -0.4 | -0.4 |
| Ak3 (Adenylate kinase 3) | DRSC16075 | -0.3 | -0.5 |
| COX7AL (Cytochrome c oxidase subunit 7A-like) | DRSC15313 | -0.3 | 0.1 |
| CG34136 | DRSC01833 | 0.6 | 0.4 |
| Slc25A46b | DRSC02888 | -0.3 | -0.6 |
| cv-2 (crossveinless 2) | DRSC03861 | 0.3 | 0.4 |
| cv-2 (crossveinless 2) | DRSC04261 | -0.2 | -0.3 |
| CG13510 | DRSC04152 | -0.4 | -0.6 |
| Cdk9 (Cyclin-dependent kinase 9) | DRSC04601 | 2.1 | 1.8 |
| CG14089 | DRSC10093 | -0.2 | -0.6 |
| Fim (Fimbrin) | DRSC20243 | -0.4 | -0.8 |
| Rbpn-5 (Rabaptin-5) | DRSC04440 | -0.3 | -0.6 |
| CG14300 | DRSC14779 | -1.2 | -0.2 |
| Ndf (Nucleosome-destabilizing factor) | DRSC02775 | -0.3 | -0.5 |
| Timp (Tissue inhibitor of metalloproteases) | DRSC17082 | -0.3 | -0.3 |
| Dpck (Dephospho-CoA kinase) | DRSC12575 | -0.1 | -0.5 |
| PlexB (Plexin B) | DRSC17177 | -0.3 | -0.3 |
| CG13698 | DRSC10047 | -0.3 | -0.6 |
| CG18659 | DRSC06784 | -0.4 | -0.2 |
| CG43127 | DRSC09039 | -0.4 | -0.8 |
| CG4661 | DRSC19910 | -0.2 | 0.7 |
| if (inflated) | DRSC20341 | 0.1 | -0.7 |
| onecut | DRSC17175 | -0.3 | -0.5 |
| Snx6 (Sorting nexin 6) | DRSC03081 | -0.1 | -0.6 |
| CG16711 | DRSC10220 | -0.4 | -0.4 |
| CG34447 | DRSC00741 | -0.1 | -0.3 |
| Nuf2 | DRSC03123 | -0.1 | -0.2 |
| CG44836 | DRSC09915 | -0.2 | -0.2 |
| CG10654 | DRSC09767 | -0.2 | 0.4 |
| Blos1 | DRSC05970 | -0.3 | -0.1 |
| CG17350 | DRSC02611 | -0.2 | -0.3 |
| Rat1 (Rat1 5'-3' exoribonuclease) | DRSC02044 | 0 | -0.2 |
| Chro (Chromator) | DRSC11630 | 0.6 | 0.7 |
| ninaC (neither inactivation nor afterpotential C) | DRSC03579 | -0.3 | -0.4 |
| ppk17 (pickpocket 17) | DRSC02252 | 2.5 | -0.2 |
| mi (minus) | DRSC04498 | 0.7 | 1.3 |
| Mef2 (Myocyte enhancer factor 2) | DRSC07468 | -0.1 | -0.5 |
| ATPsynGL (ATP synthase, subunit G-like) | DRSC03027 | -0.2 | -0.4 |
| janA (janus A) | DRSC16972 | -0.3 | -0.2 |
| CG13075 | DRSC09958 | -0.4 | -0.2 |
| CG3511 | DRSC04382 | -0.4 | -0.1 |
| Kyat (Kynurenine aminotransferase) | DRSC16147 | -0.2 | -0.1 |
| SdhCL (Succinate dehydrogenase, subunit C-like) | DRSC16078 | -0.4 | 0.5 |
| CG4793 | DRSC01966 | -0.2 | -0.6 |
| CG6180 | DRSC02937 | -0.3 | -0.4 |
| Atxn7 (Ataxin 7) | DRSC00726 | -0.4 | -0.6 |
| Cyp6t1 (Cytochrome P450 6t1) | DRSC20564 | -0.6 | -0.1 |
| Nha2 (Na[+]/H[+] hydrogen antiporter 2) | DRSC14689 | -0.4 | -0.2 |
| Nha2 (Na[+]/H[+] hydrogen antiporter 2) | DRSC15619 | 0.8 | 1 |
| Nha2 (Na[+]/H[+] hydrogen antiporter 2) | DRSC15623 | -0.2 | -0.4 |
| AlkB | DRSC19115 | -0.3 | -0.4 |
| CG42673 | DRSC08989 | -0.1 | -0.4 |
| CG42673 | DRSC08991 | -0.5 | -1.1 |
| CG42673 | DRSC10177 | -0.4 | -0.8 |
| CG42673 | DRSC10264 | -0.4 | -0.6 |
| CG42673 | DRSC10353 | -0.1 | 0.3 |
| CG42673 | DRSC10354 | -0.3 | -0.3 |
| COX6AL2 + Ir75d | DRSC10081 | -0.1 | 0.1 |

In a second layout: results already given.
gene | DRSC id | z-score, replicate 1 | z-score, replicate 2
PlexB (Plexin B) | DRSC17177 | -0.3 | -0.3
CG13698 | DRSC10047 | -0.3 | -0.6
CG18659 | DRSC06784 | -0.4 | -0.2
CG43127 | DRSC09039 | -0.4 | -0.8
CG4661 | DRSC19910 | -0.2 | 0.7
if (inflated) | DRSC20341 | 0.1 | -0.7
onecut | DRSC17175 | -0.3 | -0.5
Snx6 (Sorting nexin 6) | DRSC03081 | -0.1 | -0.6
